Results reported in US20130236458A1 (AbbVie / Abbott, published 2013).
These are yes or no findings as the source states them, for the method shown. Some results given as binding are weak or reduced against the parent protein; the word gives no strength. Each block holds one binder with its values, some of them ahead of it.

Chains of the proteins cited; added tags and fusions are not shown. Residues count along the entry.
UniProt P35225, residues 35-146: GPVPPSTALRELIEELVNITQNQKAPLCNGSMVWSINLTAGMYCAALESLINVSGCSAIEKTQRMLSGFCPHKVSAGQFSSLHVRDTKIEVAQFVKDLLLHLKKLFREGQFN

What was measured:
Recombinant Human IL-13 = Recombinant Human IL-13 (human, UniProt P35225 35-146, limits assumed); test: SPR (Biacore)
Procedure: (§1) The BIACORE assay (Biacore, Inc, Piscataway, N.J.) determined the affinity of antibodies or DVD-Ig with kinetic measurements of on-rate and off-rate constants. Binding of antibodies or DVD-Ig proteins to a target antigen (for example, a purified recombinant target antigen) was determined by surface plasmon resonance-based measurements with a Biacore®1000 or 3000 instrument (Biacore® AB, Uppsala, Sweden) using running HBS-EP (10 mM HEPES [pH 7.4], 150 mM NaCl, 3 mM EDTA, and 0.005% surfactant P20) at 25° C. All chemicals were obtained from Biacore® AB (Uppsala, Sweden) or otherwise from a different source as described in the text. For example, approximately 5000 RU of goat anti-mouse IgG, (Fcγ), fragment specific polyclonal antibody (Pierce Biotechnology Inc, Rockford, Ill.) diluted in 10 mM sodium acetate (pH 4.5) was directly immobilized across a CM5 research grade biosensor chip using a standard amine coupling kit according to manufacturer's instructions and procedures at 25 μg/ml. Unreacted moieties on the biosensor surface were blocked with ethanolamine. Modified carboxymethyl dextran surface in flowcell 2 and 4 was used as a reaction surface. Unmodified carboxymethyl dextran without goat anti-mouse IgG in flow cell 1 and 3 was used as the reference surface. For kinetic analysis, rate equations derived from the 1:1 Langmuir binding model were fitted simultaneously to association and dissociation phases of all eight injections (using global fit analysis) with the use of Biaevaluation 4.0.1 software. Purified antibodies or DVD-Ig proteins were diluted in HEPES-buffered saline for capture across goat anti-mouse IgG specific reaction surfaces. Antibodies or DVD-Ig proteins to be captured as a ligand (25 μg/ml) were injected over reaction matrices at a flow rate of 5 μl/minute. The association and dissociation rate constants, kₒₙ (M⁻¹s⁻¹) and koff (s⁻¹) were determined under a continuous flow rate of 25 μl/minute. Rate constants were derived by making kinetic binding measurements at different antigen concentrations ranging from 10-200 nM. The equilibrium dissociation constant (M) of the reaction between antibodies or DVD-Ig proteins and the target antigen was then calculated from the kinetic rate constants by the following formula: KD=koff/kₒₙ. Binding was recorded as a function of time and kinetic rate constants were calculated.

Recombinant Human IL-17 = target: T1, Recombinant Human IL-17 (human, UniProt Q16552 20-155, limits assumed); test: SPR (Biacore)
T1 sequence (looked up): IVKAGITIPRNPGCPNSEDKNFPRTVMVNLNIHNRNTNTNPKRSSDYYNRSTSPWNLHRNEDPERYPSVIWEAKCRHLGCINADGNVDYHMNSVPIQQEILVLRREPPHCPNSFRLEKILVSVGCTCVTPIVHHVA
Procedure: as §1

- binding (Recombinant Human IL-13): binds
- binding (Recombinant Human IL-17): binds
B1: DVD2167 (bispecific antibody)
VH: EVQLVQSGAEVKKPGSSVKVSCKASGYTFTDYEIHWVRQAPGQGLEWMGVNDPESGGTFYNQKFDGRVTLTADESTSTAYMELSSLRSEDTAVYYCTRYSKWDSFDGMDYWGQGTTVTVSSASTKGPEVQLVQSGAEVKKPGASVKVSCKASGYTFTTYGVSWVRQAPGQGLEWMGEIYPGNYNTYYNEKFRGRVTMTTDTSTSTAYMELRSLRSDDTAVYYCARWRTSYFSDYGYFDYWGQGTTVTVSS
VL: DIQMTQSPSSLSASVGDRVTITCRASSGIISYIDWFQQKPGKAPKRLIYATFDLASGVPSRFSGSGSGTDYTLTISSLQPEDFATYYCRQVGSYPETFGQGTKLEIKRTVAAPDVVMTQSPLSLPVTLGQPASISCRSSQSLVHSHGNTYLHWYQQRPGQSPRLLIYTVSNRFSGVPDRFSGSGSGTDFTLKISRVEAEDVGVYYCSQSTHVPYTFGGGTKVEIKR
notes: DVD-Ig; also called DVD2167H; DVD2167L

- binding (Recombinant Human IL-13): binds
- binding (Recombinant Human IL-17): binds
B2: DVD2171 (bispecific antibody)
VH: EVQLVQSGAEVKKPGSSVKVSCKASGYTFTDYEIHWVRQAPGQGLEWMGVNDPESGGTFYNQKFDGRVTLTADESTSTAYMELSSLRSEDTAVYYCTRYSKWDSFDGMDYWGQGTTVTVSSASTKGPSVFPLAPEVQLVQSGAEVKKPGASVKVSCKASGYTFTTYGVSWVRQAPGQGLEWMGEIYPGNYNTYYNEKFRGRVTMTTDTSTSTAYMELRSLRSDDTAVYYCARWRTSYFSDYGYFDYWGQGTTVTVSS
VL: B1 VL
notes: DVD-Ig; also called DVD2171H; DVD2171L

- binding (Recombinant Human IL-13): binds
B3: DVD2195 (bispecific antibody)
VH: EVQLVQSGAEVKKPGSSVKVSCKASGGSFGGYGIGWVRQAPGQGLEWMGGITPFFGFADYAQKFQGRVTITADESTTTAYMELSGLTSDDTAVYYCARDPNEFWNGYYSTHDFDSWGQGTTVTVSSASTKGPSVFPLAPEVQLVQSGAEVKKPGASVKVSCKASGYTFTSYWMHWVRQAPGQGLEWIGNINPKGGSNIYNEKFQGRVTMTRDTSISTAYMELSRLRSDDTAVYYCARLDYFGDSFDLWGQGTTVTVSS
VL: EIVLTQSPDFQSVTPKEKVTITCRASQDIGSELHWYQQKPDQPPKLLIKYASHSTSGVPSRFSGSGSGTDFTLTINGLEAEDAGTYYCHQTDSLPYTFGPGTKVDIKRTVAAPDIQMTQSPSSLSASVGDRVTITCRASQGIRNYLNWYQQKPGKAPKLLIYYASNLEVGVPSRFSGSGSGTDYTLTISSLQPEDFATYYCQQDNRFPYTFGGGTKVEIKR
notes: DVD-Ig; also called DVD2195H; DVD2195L

- binding (Recombinant Human IL-17): binds
B4: DVD2161 (bispecific antibody)
VH: EVQLVQSGAEVKKPGESVKISCKASGGSFRSYGISWVRQAPGQGLEWMGGITHFFGITDYAQKFQGRVTITADESTTTAYMELSGLTSDDTAVYYCAREPNDFWNGYYDTHDFDSWGQGTTVTVSSASTKGPEVTLRESGPGLVKPTQTLTLTCTLYGFSLSTSDMGVDWIRQPPGKGLEWLAHIWWDDVKRYNPALKSRLTISKDTSKNQVVLKLTSVDPVDTATYYCARTVSSGYIYYAMDYWGQGTLVTVSS
VL: EIVLTQSPDFQSVTPKEKVTITCRASQNIGSELHWYQQKPDQSPKLLIKYASHSISGVPSRFSGSGSGTDFTLTINGLEAEDAATYYCHQSDTLPHTFGQGTKVDIKRTVAAPDIQMTQSPSSLSASVGDRVTISCRASQDIRNYLNWYQQKPGKAPKLLIFYTSKLHSGVPSRFSGSGSGTDYTLTISSLQPEDIATYYCQQGLTPPLTFGGGTKVEIKR
notes: DVD-Ig; also called DVD2161H; DVD2161L

- binding (Recombinant Human IL-17): binds
B5: DVD2165 (bispecific antibody)
VH: EVQLVQSGAEVKKPGESVKISCKASGGSFRSYGISWVRQAPGQGLEWMGGITHFFGITDYAQKFQGRVTITADESTTTAYMELSGLTSDDTAVYYCAREPNDFWNGYYDTHDFDSWGQGTTVTVSSASTKGPSVFPLAPEVTLRESGPGLVKPTQTLTLTCTLYGFSLSTSDMGVDWIRQPPGKGLEWLAHIWWDDVKRYNPALKSRLTISKDTSKNQVVLKLTSVDPVDTATYYCARTVSSGYIYYAMDYWGQGTLVTVSS
VL: B4 VL
notes: DVD-Ig; also called DVD2165H; DVD2165L

- binding (Recombinant Human IL-17): binds
B6: DVD2164 (bispecific antibody)
VH: EVTLRESGPGLVKPTQTLTLTCTLYGFSLSTSDMGVDWIRQPPGKGLEWLAHIWWDDVKRYNPALKSRLTISKDTSKNQVVLKLTSVDPVDTATYYCARTVSSGYIYYAMDYWGQGTLVTVSSASTKGPSVFPLAPEVQLVQSGAEVKKPGESVKISCKASGGSFRSYGISWVRQAPGQGLEWMGGITHFFGITDYAQKFQGRVTITADESTTTAYMELSGLTSDDTAVYYCAREPNDFWNGYYDTHDFDSWGQGTTVTVSS
VL: DIQMTQSPSSLSASVGDRVTISCRASQDIRNYLNWYQQKPGKAPKLLIFYTSKLHSGVPSRFSGSGSGTDYTLTISSLQPEDIATYYCQQGLTPPLTFGGGTKVEIKRTVAAPEIVLTQSPDFQSVTPKEKVTITCRASQNIGSELHWYQQKPDQSPKLLIKYASHSISGVPSRFSGSGSGTDFTLTINGLEAEDAATYYCHQSDTLPHTFGQGTKVDIKR
notes: DVD-Ig; also called DVD2164H; DVD2164L

- binding (Recombinant Human IL-13): binds
B7: DVD2193 (bispecific antibody)
VH: EVQLVQSGAEVKKPGSSVKVSCKASGGSFGGYGIGWVRQAPGQGLEWMGGITPFFGFADYAQKFQGRVTITADESTTTAYMELSGLTSDDTAVYYCARDPNEFWNGYYSTHDFDSWGQGTTVTVSSASTKGPEVQLVQSGAEVKKPGASVKVSCKASGYTFTSYWMHWVRQAPGQGLEWIGNINPKGGSNIYNEKFQGRVTMTRDTSISTAYMELSRLRSDDTAVYYCARLDYFGDSFDLWGQGTTVTVSS
VL: EIVLTQSPDFQSVTPKEKVTITCRASQDIGSELHWYQQKPDQPPKLLIKYASHSTSGVPSRFSGSGSGTDFTLTINGLEAEDAGTYYCHQTDSLPYTFGPGTKVDIKRTVAAPSVFIFPPDIQMTQSPSSLSASVGDRVTITCRASQGIRNYLNWYQQKPGKAPKLLIYYASNLEVGVPSRFSGSGSGTDYTLTISSLQPEDFATYYCQQDNRFPYTFGGGTKVEIKR
notes: DVD-Ig; also called DVD2193H; DVD2193L

- binding (Recombinant Human IL-13): binds
- binding (Recombinant Human IL-17): binds
B8: DVD2166 (bispecific antibody)
VH: EVQLVQSGAEVKKPGASVKVSCKASGYTFTTYGVSWVRQAPGQGLEWMGEIYPGNYNTYYNEKFRGRVTMTTDTSTSTAYMELRSLRSDDTAVYYCARWRTSYFSDYGYFDYWGQGTTVTVSSASTKGPEVQLVQSGAEVKKPGSSVKVSCKASGYTFTDYEIHWVRQAPGQGLEWMGVNDPESGGTFYNQKFDGRVTLTADESTSTAYMELSSLRSEDTAVYYCTRYSKWDSFDGMDYWGQGTTVTVSS
VL: DVVMTQSPLSLPVTLGQPASISCRSSQSLVHSHGNTYLHWYQQRPGQSPRLLIYTVSNRFSGVPDRFSGSGSGTDFTLKISRVEAEDVGVYYCSQSTHVPYTFGGGTKVEIKRTVAAPDIQMTQSPSSLSASVGDRVTITCRASSGIISYIDWFQQKPGKAPKRLIYATFDLASGVPSRFSGSGSGTDYTLTISSLQPEDFATYYCRQVGSYPETFGQGTKLEIKR
notes: DVD-Ig; also called DVD2166H; DVD2166L

- binding (Recombinant Human IL-13): binds
- binding (Recombinant Human IL-17): binds
B9: DVD2168 (bispecific antibody)
VH: B8 VH
VL: DVVMTQSPLSLPVTLGQPASISCRSSQSLVHSHGNTYLHWYQQRPGQSPRLLIYTVSNRFSGVPDRFSGSGSGTDFTLKISRVEAEDVGVYYCSQSTHVPYTFGGGTKVEIKRTVAAPSVFIFPPDIQMTQSPSSLSASVGDRVTITCRASSGIISYIDWFQQKPGKAPKRLIYATFDLASGVPSRFSGSGSGTDYTLTISSLQPEDFATYYCRQVGSYPETFGQGTKLEIKR
notes: DVD-Ig; also called DVD2168H; DVD2168L
